These results are taken from PMC7819943, “Rice protein-binding microarrays: a tool to detect cis-acting elements near promoter regions in rice”.

Sequences of proteins named here, by UniProt entry; tags and fusion partners are left off.
UniProt Q0JBA9, entry or part of it: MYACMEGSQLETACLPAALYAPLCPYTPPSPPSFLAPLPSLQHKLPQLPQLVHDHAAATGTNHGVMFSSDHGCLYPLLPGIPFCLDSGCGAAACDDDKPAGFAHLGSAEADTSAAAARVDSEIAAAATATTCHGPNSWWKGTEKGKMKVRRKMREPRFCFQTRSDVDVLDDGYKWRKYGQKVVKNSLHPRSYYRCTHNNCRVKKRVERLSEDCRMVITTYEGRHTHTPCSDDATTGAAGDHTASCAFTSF

The list shows a part of the results.

This assay addresses OsWRKY34 (Oryza sativa, UniProt Q0JBA9 1-250). In words: protein-binding microarray (RPBM); PBS, 2% BSA, 51.3 ng/ul salmon testes DNA, 50 uM zinc acetate, 200 nM TF, 25 C, 1 h; high values mean tight binding. Conditions: protein: recombinant; tags: N-terminal polyhistidine and DsRed monomer fusion (pET32a); label: CyDye5-dUTP incorporated in the synthesized complementary strand; 3' TTTTT single-stranded linker to array surface; dsDNA, one strand shown. The method, boiled down: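 A custom Agilent array was converted to double-stranded form by primer extension with Cy5-dUTP and blocked with 2% BSA. Protein at 200 nM in PBS with 2% BSA, salmon testes DNA and 50 µM zinc acetate was applied for 1 h at 25 °C, followed by washing. The proteins were polyhistidine–DsRed N-terminal fusions of transcription factors, expressed in E. coli BL21-CodonPlus and Ni–NTA-purified. The binding signal is per-feature fluorescence intensity (arbitrary units) from an Axon 4000B scanner.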
Take “CCGAGTTTAGTTTCCTACTTTGATGGCTAGCTAAAAATTTCGGAGTCACCTAGTGCAG”: the binding signal was 8970 fluorescence intensity (a.u.).

Take “CAGTAGGCAAGTTCAGCACACGTTCCGGTTCTATTCCCAGCGGAGTCACCTAGTGCAG”: the binding signal was 8680 fluorescence intensity (a.u.).

Take “TCAAAATCGTTTTTCCTTTTTCATTGCCATCACATTGTAGCGGAGTCACCTAGTGCAG”: the binding signal was 8550 fluorescence intensity (a.u.).

As for “CTCTCGTCCGCTCCCCGCCGCCGCCGCTGCAGCTGCCTCTCGGAGTCACCTAGTGCAG”, the binding signal was 8390 fluorescence intensity (a.u.).

For “GAACCCGTGCCGCTGCGCCCCAAACCCCACTACCATAAAACGGAGTCACCTAGTGCAG”, the binding signal is 10100 fluorescence intensity (a.u.).

As to “GTGGAGTTGCTTTCTCCTCCTCCTTGTTTGGGTTGGGTGCCGGAGTCACCTAGTGCAG”, the binding signal is 11900 fluorescence intensity (a.u.).

Regarding “CCATCTCTATTCTCGCACCGTCCTATGTATTATCACCCTACGGAGTCACCTAGTGCAG”, the binding signal was 9620 fluorescence intensity (a.u.).

In the case of “ATGGCAACGACCCAGTTCTGTCCGAGTAGGACTCCTTCCACGGAGTCACCTAGTGCAG”, the binding signal was 8310 fluorescence intensity (a.u.).

In the case of “ATTTAGTAATATTGCCAAGTTTTGATAGGATTTCTTATGTCGGAGTCACCTAGTGCAG”, the binding signal was 8180 fluorescence intensity (a.u.).

Consider “TTTCTTGACTTTTTCATTTGAAGTCATTTAGTGTCTCAATCGGAGTCACCTAGTGCAG”, for which the binding signal was 8810 fluorescence intensity (a.u.).

Turning to “GGAGGGGAGAGGGGAAAACGCGTGGGGCCATGATTGGCAACGGAGTCACCTAGTGCAG”, the binding signal was 9980 fluorescence intensity (a.u.).

In the case of “ATGTCGACCTGATGATTATTTTGTTGATCATGATTTTCTTCGGAGTCACCTAGTGCAG”, the binding signal was 9010 fluorescence intensity (a.u.).

Turning to “AGTTTTTGTATGAGTTGTTCGATGTTTTACGCTCCCAAATCGGAGTCACCTAGTGCAG”, the binding signal is 8520 fluorescence intensity (a.u.).

“GCATGGTTATAACATAGGGGTGTATGGGGATAGTCATGCTCGGAGTCACCTAGTGCAG”: the binding signal was 9470 fluorescence intensity (a.u.).

As to “TCGGGCTTTTGCTTCTCGAGGTTTGCCTTTGTATGCAGCACGGAGTCACCTAGTGCAG”, the binding signal is 8340 fluorescence intensity (a.u.).

On to “TGCTCCACTTTCATCCCTACATCTCGGTCTCTCACAAGACCGGAGTCACCTAGTGCAG”, for which the binding signal is 10800 fluorescence intensity (a.u.).

Consider “TGACATGGTTGTTAGGGTTTGCGAGCAAATTTTCGTGGGGCGGAGTCACCTAGTGCAG”, for which the binding signal was 10100 fluorescence intensity (a.u.).

Take “CTAGTGCGTGTTGTGTTCTTTAGTTGGTCGCCACACGGGCCGGAGTCACCTAGTGCAG”: the binding signal is 8300 fluorescence intensity (a.u.).

On to “GCCCCAACCATCTCTCGCTCTCGCGCGCACGCAAACGCAACGGAGTCACCTAGTGCAG”, for which the binding signal was 9700 fluorescence intensity (a.u.).

As to “ACATATCTGGTTTTACGGTTCGAGTACTTTTTTTATCCTGCGGAGTCACCTAGTGCAG”, the binding signal was 11000 fluorescence intensity (a.u.).

Regarding “GCTGGGTGTCAGAGGCTTCTTCAATGTTCTCCTCCTCAGGCGGAGTCACCTAGTGCAG”, the binding signal is 8050 fluorescence intensity (a.u.).

In the case of “CTCCTCTTGACATCACCCTACTTCCATATGCTGGCTTTAACGGAGTCACCTAGTGCAG”, the binding signal is 11800 fluorescence intensity (a.u.).

Regarding “ACATTCTACTCAATATCTCAAATATGCTAACTCATTTTCCCGGAGTCACCTAGTGCAG”, the binding signal is 8100 fluorescence intensity (a.u.).

In the case of “AATGTACTCCTCCACATGCCTTCAATTCAGTACCATGTTTCGGAGTCACCTAGTGCAG”, the binding signal was 10300 fluorescence intensity (a.u.).

Consider “CTCGCAAAATCAACGCTTGAGACGTTAGACACCCAATTTCCGGAGTCACCTAGTGCAG”, for which the binding signal was 8080 fluorescence intensity (a.u.).

As for “TATTTAACACATGGGAGGGAGATATTTAGTCTCGGTTAGTCGGAGTCACCTAGTGCAG”, the binding signal is 9700 fluorescence intensity (a.u.).

For “TTTCCTGCTGTTTGTAGTTGTGTTTAGCCGCTGTAGTTTACGGAGTCACCTAGTGCAG”, the binding signal was 10900 fluorescence intensity (a.u.).

Take “ACGCGCGCACGCTCACCCCTATGAACATACATCCTACCCTCGGAGTCACCTAGTGCAG”: the binding signal was 8600 fluorescence intensity (a.u.).

With “TGATGCATGGTGCCTCTGTCCTTTCAACTTTGGTTGCCTTCGGAGTCACCTAGTGCAG”, the binding signal is 8620 fluorescence intensity (a.u.).

As to “GCGACCACGCTCGACCGCCATCTCCCGCTCCTTGACCGTCCGGAGTCACCTAGTGCAG”, the binding signal was 10200 fluorescence intensity (a.u.).

With “ACGCCAAACAATTTGATTCGTTGTCTTCGTGTTTTATTTCCGGAGTCACCTAGTGCAG”, the binding signal is 11100 fluorescence intensity (a.u.).

With “GTGAGGGGATCTTTCTCTTGGCTTCACTCGTCTTCCAATCCGGAGTCACCTAGTGCAG”, the binding signal is 10900 fluorescence intensity (a.u.).

As for “GACGCCACATGGCTGCTAAACTTCGTTATCCTGTTGTTGTCGGAGTCACCTAGTGCAG”, the binding signal is 8470 fluorescence intensity (a.u.).

With “ATACCTCTTGTGTATTAATTAAACATTAGTGTTTCTGTTCCGGAGTCACCTAGTGCAG”, the binding signal was 48000 fluorescence intensity (a.u.).

Regarding “CTACACATGTCGTCGTCCTTCTTATCCTTTTCATTTTCATCGGAGTCACCTAGTGCAG”, the binding signal is 9410 fluorescence intensity (a.u.).

On to “CACAAACTTTCAACTTTTTTGTCACATCGTTTCAATTTTACGGAGTCACCTAGTGCAG”, for which the binding signal is 9800 fluorescence intensity (a.u.).

Take “AACAAACAACTCAATTTATTTATCTTGTCATACGGCAATCCGGAGTCACCTAGTGCAG”: the binding signal is 10100 fluorescence intensity (a.u.).

Consider “ATTTATCTGCACCACTGAATTTAATCTGTACCCAATATTCCGGAGTCACCTAGTGCAG”, for which the binding signal was 9500 fluorescence intensity (a.u.).

“CCGCCGCCGCCGAAGCTCTCCACCACCGAATGGTCAATCTCGGAGTCACCTAGTGCAG”: the binding signal was 8920 fluorescence intensity (a.u.).

“AGCAGTAGTCAGTTCCACTCCTACTAGTACTTCTCTCCACCGGAGTCACCTAGTGCAG”: the binding signal was 10300 fluorescence intensity (a.u.).

For the sequence “TGTCCGTGGTCTCTTTTTATGCGAGAATATGATTTCCGGTCGGAGTCACCTAGTGCAG”, the binding signal was 8070 fluorescence intensity (a.u.).

In the case of “AGGCGAGCGGCGCCGCGGCGTCGTGGGTGGTGGGGCGGATCGGAGTCACCTAGTGCAG”, the binding signal was 9650 fluorescence intensity (a.u.).
